This series is described as follows: general procedure: Fmoc solid-phase peptide synthesis. To be noted: whole synthesis.

These results are taken from paper PMC6724035 (Pharmaceutics, 2019).

Some peptides are written in HELM: one residue between dots, names in brackets for other building blocks, links after the first $.

Turning to “PEPTIDE1{Y.[PEG2].[dF].Q.W.A.V.G.H.[Sta].L.[am]}$$$$V2.0”, the “final purity (method not given)” value (280 nm) is given as “over 95%”. For the same substance, where the note is “based on the initial loading of the resin”, the isolated yield was determined as 6.0%.
